Data published in US8846107B2, “In situ generation of peroxycarboxylic acids at alkaline pH, and methods of use thereof” (priority 2010, dated 2014).
Some entries share one result that the patent states for a list of compounds.

System: Escherichia coli ATCC 11229
Assay: Sanitizing efficacy of in situ generated peroxycarboxylic acids
Assay type: cell-based
Settings: alone, at every concentration tested, pH 5.0, after 30 seconds
Procedure: A study was run to evaluate the sanitizing efficacy of mixtures of peroxycarboxylic acids generated in situ from esters under alkaline conditions. For this study the following ester based peroxycarboxylic acid forming compositions were used.
The above Peroxycarboxylic acid premixes were then tested alone at various concentrations, and mixed at various concentrations against Staphylococcus aureus ATCC 6538, and Escherichia coli ATCC 11229.
The test substances were tested against Staphylococcus aureus ATCC 6538, and Escherichia coli ATCC 11229 at 25° C.±1° C. for 30 seconds. A neutralizer screen was performed as part of the testing to verify that the neutralizer adequately neutralized the product and was not detrimental to the tested organisms.

`CC(=O)OO` [POAA, peroxyacetic acid] was tested, and the “log reductions of Escherichia coli (sanitizer test)” value was “less than 5 log”.
